From patent publication US6585996B1, “Lipid-soluble thiamine derivatives in the treatment of autism” (Westlake Laboratories, Inc., priority 2002, dated 2003)

How the values were obtained:
[1] = 10 patients
[2] = mean of 10 patients, end of the study; P value NS vs 1st
[3] = Pts 2: one month after treatment start
[4] = Pts 3: after two months of treatment
[5] = Pts 3: after two months of treatment, 50 mg TTFD twice a day, rectal suppository, N=10

With `CC(=C(CCO)SSCC1CCCO1)N(C=O)Cc1cnc(C)nc1N` (stereo in doubt) [TTFD, thiamine tetrahydrofurfuryl disulfide] the “Urinary total protein, mean” value [1, 3] was 72.3 ± 65.6, the “Urinary total sulfate, mean” value [1, 3] was 7134.3 ± 4631 and the “Urinary total sulfite, mean” value [1, 3] was 47.2 ± 77.6. For the same molecule, the “Urinary total thiocyanate, mean” value [1, 3] was 24.9 ± 21.1, the “Urinary total thiosulfate, mean” value [1, 3] was 25.8 ± 15.7 and the “Urinary total protein, mean” value [1, 4] was 62.2 ± 44.0. For the same molecule, the “Urinary total sulfate, mean” value [1, 4] was 5946.2 ± 4278, the “Urinary total sulfite, mean” value [1, 4] was 16.9 ± 24.7 and the “Urinary total thiocyanate, mean” value [1, 4] was 29.3 ± 28.7. For the same molecule, the “Urinary total thiosulfate, mean” value [1, 4] was 25.6 ± 24.5, the “Urinary arsenic, mean concentration” value [5] was 52.1 ± 20.3 Mcg/g Creatinine and the “Urinary cadmium, mean concentration” value [5] was 0.42 ± 0.49 Mcg/g Creatinine. The “Urinary lead, mean concentration” value [5] was 3.3 ± 3.8 Mcg/g Creatinine, the “Urinary mercury, mean concentration” value [5] was 1.21 ± 1.24 Mcg/g Creatinine and the “Course of urinary arsenic during treatment” value (after 1 month of treatment and at completion of the study) was “tended to increase followed by a decline”. For the same molecule, the “Mean value for 2nd hair arsenic concentration” value [2] was 2nd: 2.35 ± 0.91 NS PPM.

Read-outs that look alike come from different tables or passages of the source.
